Test system: HepG2 cells
Test: In vitro toxicity assessment in HepG2 cells

**Q.** With `COc1cccc(/C=N/NC(=O)c2nc(-c3ccccc3)cc(-c3ccccc3)n2)c1O` [CB-41] as the molecule, how does the “SI (relative to WR288510-3)” value read?
**A.** >100-fold

**Q.** Which “SI (relative to WR288510-3)” value does the source give for `COc1cccc(/C=N/NC(=O)c2cc(-c3ccccc3)nc3ccccc23)c1O` [CB-58] here?
**A.** >100-fold

**Q.** How did the “SI (relative to WR288510-3)” value turn out when `O=C(N/N=C/c1c(O)ccc2ccccc12)c1cc([N+](=O)[O-])cc([N+](=O)[O-])c1` [CB-61] was run?
**A.** >100-fold

**Q.** Which “SI (relative to WR288510-3)” value does the source give for `O=C(N/N=C/c1cc(Br)ccc1O)/C(=C/C=C/c1ccccc1)NC(=O)c1ccccc1` [CB-50] here?
**A.** >100-fold

**Q.** Which “SI (relative to WR288510-3)” value does the source give for `O=C(NN=Cc1ccccc1O)c1cc(-c2ccccc2)nc2ccccc12` [CB-53] here?
**A.** >100-fold

**Q.** `O=C(Nc1cc(Cl)ccc1O)c1cc2nc(-c3ccccc3)cc(-c3ccccc3)n2n1` [CB-59] was tested. Which “SI (relative to WR288510-3)” value did it give?
**A.** >100-fold

Source: article PMC11620517, “Novel hydrazone compounds with broad-spectrum antiplasmodial activity and synergistic interactions with antimalarial drugs” (Antimicrobial Agents and Chemotherapy, 2024)
